Test results: the supplement of paper PMC10727501
This is one part of the list. This data set is noisy: repeats of one test often differ as much as different tests do.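 Free-swimming zebrafish larvae were scored for O-bend response probability to dark flashes (naive: first five; training: remaining flashes of four 60-flash blocks; test: later 60-flash block) and for turning toward alternating leftward/rightward LED motion (OMR). Six treated larvae were compared with sixty 0.1% DMSO controls; |SSMD|≥2 defined a hit.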

Tests used:
Conditions in all cases: 10 µM; pre-incubation: 30-90 min
[1] = system: Danio rerio larvae (5 dpf, TLF); test: OMR-Perf (SSMD vs DMSO vehicle); higher = higher than vehicle (e.g. higher dark-flash O-bend response probability, or better optomotor performance)
[2] = system: Danio rerio larvae (5 dpf, TLF); test: Prob-Test (SSMD vs DMSO vehicle); higher = higher than vehicle (e.g. higher dark-flash O-bend response probability, or better optomotor performance)
[3] = system: Danio rerio larvae (5 dpf, TLF); test: Prob-Naive (SSMD vs DMSO vehicle); higher = higher than vehicle (e.g. higher dark-flash O-bend response probability, or better optomotor performance)
[4] = system: Danio rerio larvae (5 dpf, TLF); test: Prob-Train (SSMD vs DMSO vehicle); higher = higher than vehicle (e.g. higher dark-flash O-bend response probability, or better optomotor performance)

SMILES	OMR-Perf [1]	Prob-Test [2]	Prob-Naive [3]	Prob-Train [4]
CN(c1ncccc1CNc1nc(Nc2ccc3c(c2)CC(=O)N3)ncc1C(F)(F)F)S(C)(=O)=O	-0.865	0.0143	-0.694	-0.162
CN(C)CCCN1c2ccccc2CCc2ccccc21.Cl [Imipramine HCl]	-0.305	-0.903	0.163	0.171
O=C(O)Cc1cc(I)c(Oc2ccc(O)c(I)c2)c(I)c1 [Tiratricol]	-0.181	-0.675	-0.329	-0.834
CCN(CC)CCNC(C(=O)OCCC(C)C)c1ccccc1.Cl.Cl (stereo not given) [Camylofin Chlorhydrate]	0.737	1.31	0.0311	0.203
CCc1ccc(CCOc2ccc(CC3SC(=O)NC3=O)cc2)nc1.Cl (stereo not given) [Pioglitazone HCl]	-0.308	-0.989	-0.305	-1.26
CC(C)C(=O)Oc1ccc(CO)cc1[C@H](CCN(C(C)C)C(C)C)c1ccccc1.O=C(O)/C=C\C(=O)O [Fesoterodine Fumarate]	0.12	-0.453	0.486	-0.18
C[C@@H]1C[C@H]2[C@@H]3CCC4=CC(=O)C=C[C@]4(C)[C@]3(Cl)[C@H](O)C[C@]2(C)[C@]1(OC(=O)c1ccco1)C(=O)CCl [Mometasone furoate]	0.201	-0.00393	0.0956	-0.573
CCOC(=O)C1=C[C@@H](OC(CC)CC)[C@H](NC(C)=O)[C@@H](N)C1.O=P(=O)OO.[HH] [Oseltamivir phosphate]	-0.128	-0.338	0.478	0.243
COc1ccc2cccc(CCNC(C)=O)c2c1 [Agomelatine]	-0.445	-1.68	-1.37	-2.58
CO[C@H]1/C=C/O[C@@]2(C)Oc3c(C)c(O)c4c(O)c(c(/C=N/N5CCN(C6CCCC6)CC5)c(O)c4c3C2=O)NC(=O)/C(C)=C/C=C/[C@H](C)[C@H](O)[C@@H](C)[C@@H](O)[C@@H](C)[C@H](OC(C)=O)[C@@H]1C [Rifapentine]	-0.27	0.657	0.493	0.704
O=C(O)C(Cc1ccccc1N(O)O)=NNC1=NC(c2ccc(Cl)c(Cl)c2)CS1 (stereo not given)	0.713	-0.262	-0.366	-0.472
Cc1onc(-c2ccccc2)c1-c1ccc(S(N)(=O)=O)cc1 [Valdecoxib]	-0.332	-0.267	0.131	-0.138
Nc1nc(=O)[nH]cc1F [Flucytosine]	-0.0771	0.0104	-0.404	-0.594
CC[C@H]1OC(=O)C[C@@H](O)[C@H](C)[C@@H](O[C@H]2O[C@H](C)[C@@H](O[C@H]3C[C@@](C)(O)[C@@H](O)[C@H](C)O3)[C@H](N(C)C)[C@H]2O)[C@@H](CC=O)C[C@@H](C)C(=O)/C=C/C(C)=C/[C@@H]1CO[C@@H]1O[C@H](C)[C@@H](O)[C@@H](OC)[C@H]1OC.O=C(O)[C@H](O)[C@@H](O)C(=O)O [Tylosin tartrate]	0.0202	-0.112	0.478	-0.0204
Cc1ccc(C(=O)C(C)CN2CCCCC2)cc1.Cl (stereo not given) [Tolperisone HCl]	-0.395	0.385	0.232	0.987
O=C(/C=C/c1ccc(O)c(O)c1)OCCc1ccccc1 [Caffeic Acid Phenethyl Ester]	0.0694	0.0901	0.297	-0.393
CCOc1ccc2ccccc2c1C(=O)N[C@@H]1C(=O)N2[C@@H]1SC(C)(C)[C@H]2C(=O)[O][Na].O [Nafcillin Sodium]	-0.102	-0.206	-0.171	0.465
COc1ccc(CCN(C)CCCC(C#N)(c2ccc(OC)c(OC)c2)C(C)C)cc1OC.Cl (stereo not given) [Verapamil HCl]	-0.102	0.0101	-0.865	-1.06
Brc1c(NC2=NCCN2)ccc2nccnc12.O=C(O)[C@@H](O)[C@@H](O)C(=O)O [Brimonidine Tartrate]	-0.445	-0.805	-0.314	-1.12
COc1cc2ncnc(Sc3nnc(C)s3)c2cc1OC	-0.273	1.2	-0.254	1.6
NC(=O)N/N=C/c1ccc([N+](=O)[O-])o1 [Nitrofural]	0.0352	-0.091	0.493	0.167
CC1CCc2c(N3CCC(O)CC3)c(F)cc3c(=O)c(C(=O)O)cn1c23 (stereo not given) [Nadifloxacin]	-0.041	-0.78	-0.376	-0.0471
CC(c1cc2ccccc2s1)N(O)C(N)=O (stereo not given) [Zileuton]	0.287	-0.408	-0.235	-0.536
C=C1CC[C@@H]2[C@](C)(CO)[C@H](O)CC[C@@]2(C)[C@H]1C/C=C1/C(=O)OCC1O (stereo not given in full) [Andrographolide]	0.373	0.324	-0.29	0.331
COc1cc(Cc2cnc(N)nc2N)cc(OC)c1OC [Trimethoprim]	-0.302	0.15	0	0.18

One compound at a time, from the list above.
`Cc1onc(-c2ccccc2)c1-c1ccc(S(N)(=O)=O)cc1` [Valdecoxib] as listed: OMR-Perf [1]: -0.332; Prob-Test [2]: -0.267; Prob-Naive [3]: 0.131; Prob-Train [4]: -0.138
`C=C1CC[C@@H]2[C@](C)(CO)[C@H](O)CC[C@@]2(C)[C@H]1C/C=C1/C(=O)OCC1O` (stereo not given in full) [Andrographolide] as listed: OMR-Perf [1]: 0.373; Prob-Test [2]: 0.324; Prob-Naive [3]: -0.29; Prob-Train [4]: 0.331
`CCc1ccc(CCOc2ccc(CC3SC(=O)NC3=O)cc2)nc1.Cl` (stereo not given) [Pioglitazone HCl] as listed: OMR-Perf [1]: -0.308; Prob-Test [2]: -0.989; Prob-Naive [3]: -0.305; Prob-Train [4]: -1.26
`COc1ccc(CCN(C)CCCC(C#N)(c2ccc(OC)c(OC)c2)C(C)C)cc1OC.Cl` (stereo not given) [Verapamil HCl] as listed: OMR-Perf [1]: -0.102; Prob-Test [2]: 0.0101; Prob-Naive [3]: -0.865; Prob-Train [4]: -1.06

Next part.

SMILES	OMR-Perf [1]	Prob-Test [2]	Prob-Naive [3]	Prob-Train [4]
C/C(=N\NC(=O)c1cccc(S(=O)(=O)N2CCOCC2)c1)c1cc(Cl)ccc1O	-0.0452	-0.511	-0.268	-0.352
C[C@@H]1O[C@@H](OC[C@@H]2O[C@@H](Oc3c(-c4ccc(OCCO)c(OCCO)c4)oc4cc(OCCO)cc(O)c4c3=O)[C@H](O)[C@@H](O)[C@@H]2O)[C@H](O)[C@H](O)[C@H]1O [Troxerutin]	-0.111	0.227	-0.0925	0.0304
Nc1ccc(S(N)(=O)=O)cc1 [Sulfanilamide]	0.0191	1.05	0.549	0.794
Cc1ncc(-c2ccnc(Nc3ccc(S(C)(=O)=O)cc3)n2)n1C(C)C	-0.739	0.402	0.289	0.184
Cl.Clc1ccccc1CN1CCc2sccc2C1 [Ticlopidine HCl]	-0.554	-0.933	-0.578	-0.26
Br.NC(=O)C(c1ccccc1)(c1ccccc1)[C@@H]1CCN(CCc2ccc3c(c2)CCO3)C1 [Darifenacin HBr]	0.0837	-0.226	0.6	-0.374
CC(=O)NCC(=O)O.CC(=O)NCC(=O)O.N=C(N)c1ccc(/N=N/Nc2ccc(C(=N)N)cc2)cc1 [Diminazene Aceturate]	0.439	0.586	0.241	0.436
Cc1cc(/C=C/C#N)cc(C)c1Nc1ccnc(Nc2ccc(C#N)cc2)n1 [Rilpivirine]	-0.945	-1.79	-0.0555	-1.58
CN(C)CC(c1ccc(O)cc1)C1(O)CCCCC1.O=C(O)CCC(=O)O (stereo not given) [Desvenlafaxine Succinate]	-0.471	-0.45	-0.0948	-0.229
Oc1ccc(/C=C/c2cc(O)cc(O)c2)cc1 [Resveratrol]	-0.147	0.384	0.146	0.366
COc1cc[nH]c2ncc(C(=O)C(=O)N3CCN(C(=O)c4ccccc4)C[C@H]3C)c1-2	-0.146	0.522	-0.263	0.946
O=C(Nc1cccc(C(F)(F)F)c1)Nc1cc(S(=O)(=O)NC2CC2)ccc1-c1ccsc1	0.278	-0.191	-0.357	-0.402
O=C1c2ccccc2-c2n[nH]c3cccc1c23	0.658	-1.49	-5.13	-2.35
CCS(=O)(=O)N1CC(CC#N)(n2cc(-c3ncnc4[nH]ccc34)cn2)C1	-0.455	-0.204	0.446	-0.0457
CN(C)C1CCN(C(=O)c2ccc(NC(=O)Nc3ccc(-c4nc(N5CCOCC5)nc(N5CCOCC5)n4)cc3)cc2)CC1	0.545	0.236	-0.485	-0.096
CCS(=O)(=O)c1cccc(-c2cc(C(=O)NC3CCN(C)CC3)c(C)c3[nH]c4ncc(C)cc4c23)c1	1.05	0.31	-0.0487	0.0617
NC(=O)N1CCC(CC(=O)N2CCC([C@H]3c4ncc(Br)cc4CCc4cc(Cl)cc(Br)c43)CC2)CC1 [Lonafarnib]	-0.792	-1.39	0.302	-0.901
Cn1c(=O)c2c(ncn2CC2OCCO2)n(C)c1=O [Doxofylline]	-0.74	-0.092	-0.204	0.312
CCN(CC)CCCC(C)Nc1ccnc2cc(Cl)ccc12.O=P(O)(O)O.O=P(O)(O)O (stereo not given) [Chloroquine Phosphate]	0.0412	-0.388	0.338	-0.0444
C[N+](C)(C)CC(O)CC(=O)O.[Cl-] (racemic) [DL-Carnitine HCl]	-0.233	0.0775	-0.286	0.204
COc1ccc(CCC(=O)Nc2nc3ccc(Cl)cc3s2)cc1OC	-0.562	-1.44	-0.517	-1.72
Cc1c(C(=O)N2CCOc3ccc(-c4ccc(N)nc4)cc3C2)ccc(S(C)(=O)=O)c1F	-0.19	0.406	0.538	0.0646
COc1ccccc1N1CCN(CCCNc2cc(=O)n(C)c(=O)n2C)CC1.Cl [Urapidil HCl]	-0.467	0.437	0.462	0.357
CC(=O)O[C@@]1(C(C)=O)CC[C@H]2[C@@H]3C=C(C)C4=CC(=O)CC[C@]4(C)[C@@H]3CC[C@@]21C [Megestrol Acetate]	-0.292	-0.429	0.149	-0.529
CCN1CCN(C(=O)N[C@@H](C(=O)N[C@H]2C(=O)N3[C@@H]2SC(C)(C)[C@H]3C(=O)[O-])c2ccccc2)C(=O)C1=O.[Na+] [Piperacillin Sodium]	0.129	-0.212	0.147	0.169
